PubChem BioAssay AID1224830, NIAID, 2016
Purpose: 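Host factors that control LPS-induced TNF expression in human macrophages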 (primary screen). System: human THP-1 monocytic leukaemia cells, TNF dual-luciferase reporter clone, PMA-differentiated to macrophage-like cells. Reagents: siRNA pool against human genes, 50 nM. Time to read-out: LPS for 4 h, given about 3 days after siRNA transfection. Challenge: bacterial LPS (TLR4 ligand), 10 ng/ml. Measured: 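TNF firefly reporter luminescence divided by renilla, normalised to the plate median, then turned into a robust z-score for each replicate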. Scale: TNF reporter robust z-score: higher = stronger TNF reporter response to LPS. Rule for the call: 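Each well counts as active if its z-score is over 2.8 or under -1.5; controls are left without a call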.
The deposit covers about 18,000 reagents; below is an unselected part. In the full data, about 2,900 (16%) were called active. 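Calls are made per well; low scores hint the gene aids the LPS response, high scores that it dampens it.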 Entries without a mark were called inactive. Repeated entries: four replicate wells of each siRNA pool. No sequences are given here.

gene,TNF reporter robust z-score
PARP12 (poly(ADP-ribose) polymerase family member 12),0.79
PARP12 (poly(ADP-ribose) polymerase family member 12),0.73
PARP12 (poly(ADP-ribose) polymerase family member 12),2.5
PARP12 (poly(ADP-ribose) polymerase family member 12),2.92 (active)
DOCK2 (dedicator of cytokinesis 2),-0.34
DOCK2 (dedicator of cytokinesis 2),0.29
DOCK2 (dedicator of cytokinesis 2),-0.53
DOCK2 (dedicator of cytokinesis 2),0.86
TUBB2B (tubulin beta 2B class IIb),0.17
TUBB2B (tubulin beta 2B class IIb),-0.88
TUBB2B (tubulin beta 2B class IIb),-0.58
TUBB2B (tubulin beta 2B class IIb),0.4
DBR1 (debranching RNA lariats 1),-0.29
DBR1 (debranching RNA lariats 1),0.66
DBR1 (debranching RNA lariats 1),-0.75
DBR1 (debranching RNA lariats 1),-1.25
ABCA8 (ATP binding cassette subfamily A member 8),11.4 (active)
ABCA8 (ATP binding cassette subfamily A member 8),0.19
ABCA8 (ATP binding cassette subfamily A member 8),-0.28
ABCA8 (ATP binding cassette subfamily A member 8),0.17
FANCD2OS (FANCD2 opposite strand),-0.22
FANCD2OS (FANCD2 opposite strand),0.05
FANCD2OS (FANCD2 opposite strand),0.03
FANCD2OS (FANCD2 opposite strand),0.6
RGS22 (regulator of G protein signaling 22),1.68
RGS22 (regulator of G protein signaling 22),1.75
RGS22 (regulator of G protein signaling 22),0.87
RGS22 (regulator of G protein signaling 22),-1.02
UBE2L6 (ubiquitin conjugating enzyme E2 L6),-0.55
UBE2L6 (ubiquitin conjugating enzyme E2 L6),-0.24
UBE2L6 (ubiquitin conjugating enzyme E2 L6),-0.88
UBE2L6 (ubiquitin conjugating enzyme E2 L6),-0.7
WFDC11 (WAP four-disulfide core domain 11),0.84
WFDC11 (WAP four-disulfide core domain 11),-0.14
WFDC11 (WAP four-disulfide core domain 11),0.04
WFDC11 (WAP four-disulfide core domain 11),0.22
CCDC121 (coiled-coil domain containing 121),-1.96 (active)
CCDC121 (coiled-coil domain containing 121),-0.87
CCDC121 (coiled-coil domain containing 121),-1.6 (active)
CCDC121 (coiled-coil domain containing 121),-1.35
GNPTG (N-acetylglucosamine-1-phosphate transferase subunit gamma),-0.23
GNPTG (N-acetylglucosamine-1-phosphate transferase subunit gamma),1.12
GNPTG (N-acetylglucosamine-1-phosphate transferase subunit gamma),-0.13
GNPTG (N-acetylglucosamine-1-phosphate transferase subunit gamma),0.92
PCDH10 (protocadherin 10),0.02
PCDH10 (protocadherin 10),-0.93
PCDH10 (protocadherin 10),0.2
PCDH10 (protocadherin 10),0.74
EPHA10 (EPH receptor A10),-0.47
EPHA10 (EPH receptor A10),-0.57
EPHA10 (EPH receptor A10),-0.64
EPHA10 (EPH receptor A10),-0.17
DAO (D-amino acid oxidase),0.58
DAO (D-amino acid oxidase),1.37
DAO (D-amino acid oxidase),0.38
DAO (D-amino acid oxidase),1.75
CCDC92 (coiled-coil domain containing 92),4.85 (active)
CCDC92 (coiled-coil domain containing 92),4.37 (active)
CCDC92 (coiled-coil domain containing 92),3.75 (active)
CCDC92 (coiled-coil domain containing 92),3.53 (active)
CA10 (carbonic anhydrase 10 (inactive)),-0.94
CA10 (carbonic anhydrase 10 (inactive)),0.34
CA10 (carbonic anhydrase 10 (inactive)),-0.7
CA10 (carbonic anhydrase 10 (inactive)),0.9
"PFKFB4 (6-phosphofructo-2-kinase/fructose-2,6-biphosphatase 4)",-1.12
"PFKFB4 (6-phosphofructo-2-kinase/fructose-2,6-biphosphatase 4)",-0.19
"PFKFB4 (6-phosphofructo-2-kinase/fructose-2,6-biphosphatase 4)",0.16
"PFKFB4 (6-phosphofructo-2-kinase/fructose-2,6-biphosphatase 4)",-0.34

Targets listed so far whose target name begins with U or u (4):
gene,TNF reporter robust z-score
UBE2L6 (ubiquitin conjugating enzyme E2 L6),-0.55
UBE2L6 (ubiquitin conjugating enzyme E2 L6),-0.24
UBE2L6 (ubiquitin conjugating enzyme E2 L6),-0.88
UBE2L6 (ubiquitin conjugating enzyme E2 L6),-0.7

Additional reagents follow:
gene,TNF reporter robust z-score
ASB3 (ankyrin repeat and SOCS box containing 3),-0.06
ASB3 (ankyrin repeat and SOCS box containing 3),4.82 (active)
ASB3 (ankyrin repeat and SOCS box containing 3),-0.95
ASB3 (ankyrin repeat and SOCS box containing 3),1.89
INSYN1 (inhibitory synaptic factor 1),0.16
INSYN1 (inhibitory synaptic factor 1),-0.01
INSYN1 (inhibitory synaptic factor 1),-0.02
INSYN1 (inhibitory synaptic factor 1),0.89
ADRA2A (adrenoceptor alpha 2A),1.43
ADRA2A (adrenoceptor alpha 2A),1.66
ADRA2A (adrenoceptor alpha 2A),1.99
ADRA2A (adrenoceptor alpha 2A),0.91
IL9 (interleukin 9),-0.44
IL9 (interleukin 9),-0.59
IL9 (interleukin 9),-0.81
IL9 (interleukin 9),-0.39
ZNF628 (zinc finger protein 628),2.71
ZNF628 (zinc finger protein 628),2.44
ZNF628 (zinc finger protein 628),1.36
ZNF628 (zinc finger protein 628),1.37
CDH6 (cadherin 6),-0.19
CDH6 (cadherin 6),-0.38
CDH6 (cadherin 6),-0.84
CDH6 (cadherin 6),-0.45
HCFC2 (host cell factor C2),1.33
HCFC2 (host cell factor C2),1.37
HCFC2 (host cell factor C2),1.64
HCFC2 (host cell factor C2),0.29
HAS2 (hyaluronan synthase 2),2.24
HAS2 (hyaluronan synthase 2),0.37
HAS2 (hyaluronan synthase 2),0.52
HAS2 (hyaluronan synthase 2),1.01
TRIM49B (tripartite motif containing 49B),0.86
TRIM49B (tripartite motif containing 49B),0.11
TRIM49B (tripartite motif containing 49B),0.22
TRIM49B (tripartite motif containing 49B),-0.77
HACD3 (3-hydroxyacyl-CoA dehydratase 3),-0.57
HACD3 (3-hydroxyacyl-CoA dehydratase 3),-0.03
HACD3 (3-hydroxyacyl-CoA dehydratase 3),-0.18
HACD3 (3-hydroxyacyl-CoA dehydratase 3),1.39
KAT2A (lysine acetyltransferase 2A),-1.29
KAT2A (lysine acetyltransferase 2A),1.83
KAT2A (lysine acetyltransferase 2A),1.11
KAT2A (lysine acetyltransferase 2A),0.84
